PubChem BioAssay AID540256 (National Center for Advancing Translational Sciences (NCATS), 2011)
Screen size: about 300,000 compounds; about 3,700 (1.2%) were called active. The shares of active, inactive and inconclusive entries below differ from those in the screen. Calls follow the shape of the full dose curve; tested in HEK293 cells. Potencies beside an inconclusive call are fits to weak or partial responses and may not hold up.

Test: qHTS for Inhibitors of binding or entry into cells for Lassa Virus; also: nearly all actives have a fitted effect of over 50% in size
Conditions: Lassa virus pseudotype entry inhibition, cell reporter; series mostly up to 37.9 µM
Potency is read from the fitted curve at half-maximal effect.

| Structure (SMILES) | Potency |
| --- | --- |
| COc1cc(/C=C/C(=O)O)cc(S(=O)(=O)NC2CC2)c1OC | inconclusive: 3.55 µM [activator, single point] |
| Cc1cccc(C)c1-n1c(C)cc(/C=N\Nc2ccc([N+](=O)[O-])cn2)c1C | inconclusive: 12.6 µM [inhibitor, partial curve, poor fit] |
| Cc1cc(OC(C)C(=O)N(Cc2ccco2)Cc2ccco2)cc(C)c1Cl (stereo not drawn) | inactive |
| Cc1ccc([C@H]2C[C@@H](n3cc(C4CC4)nn3)[C@H](O)CN2Cc2cccs2)cc1 | inconclusive: 31.5 µM [inhibitor, single point] |
| COc1ccccc1C(=O)CSc1ccccn1 | inactive |
| COc1ccc(C)cc1S(=O)(=O)N(CC(=O)Nc1cccc([N+](=O)[O-])c1)c1ccccc1 | inactive |
| Cc1ccccc1CN1CCN(S(=O)(=O)c2cccs2)CC1 | inconclusive: 6.31 µM [inhibitor, single point] |
| Cc1nn(CC(=O)N2CCN(c3ccccc3F)CC2)c(=O)c2cccn12 | inconclusive: 35.5 µM [inhibitor, single point] |
| Cc1cc(C)n(CCCN2C(=O)c3cccc4cccc(c34)C2=O)n1 | inconclusive: 10 µM [inhibitor, partial curve, poor fit] |
| CCOC(=O)C(=Cc1ccc(Br)cc1)C(=O)OCC | inconclusive: 4.47 µM [inhibitor, full curve, poor fit] |
| CCOC(=O)C1=C(C)NC(SCC(=O)OC)=C(C#N)C1c1ccc(C(=O)OC)cc1 (stereo not drawn) | inactive |
| Cc1ccc(OCC(=O)Nc2ccccc2Sc2ccc(Cl)cc2)c([N+](=O)[O-])n1 | inconclusive: 25.1 µM [inhibitor, single point] |
| Cc1c(Cc2ccccc2)c(=O)oc2c(O)c(O)ccc12 | inconclusive: 7.94 µM [inhibitor, partial curve, poor fit] |
| CCCCCCN1C[C@@H](O)[C@H](n2cc(C3CC3)nn2)C[C@H]1c1ccc(Cl)cc1 | inconclusive: 5.6 µM [inhibitor, single point] |
| CCC(C)N(C(=O)CSc1nnc(-c2cccs2)n1C1CC1)C1CCS(=O)(=O)C1 (stereo not drawn) | inconclusive: 0.891 µM [activator, partial curve, poor fit] |
| CCc1ccccc1N1C(=O)N(Cc2cc(=O)n3ccccc3n2)c2ccccc2S1(=O)=O | inconclusive: 10 µM [inhibitor, single point] |
| CCOc1ccc2oc(C(=O)N(C)CC(=O)Nc3ccc(OCC)c(OCC)c3)c(C)c2c1 | inactive |
| O=C(NCc1ccccc1)c1c2c(nc3ccccc13)C(=O)N(C1CCCCC1)C2 | inconclusive: 0.631 µM [inhibitor, full curve, poor fit] |
| N[C@@H](Cc1c[nH]c2ccccc12)c1nnc(SCc2ccccc2F)o1 | inactive |
| COc1ccc(N2CCN(c3ccc(NC(=O)c4ccc5c(c4)OCO5)cc3C#N)CC2)cc1 | inconclusive: 1.26 µM [inhibitor, partial curve, poor fit] |
| Cc1ccc2c(c1)N(C(=O)c1ccc(F)cc1)C(C)(C)CC2(C)c1ccccc1 (stereo not drawn) | inactive |
| CCN(CC)CCN(C(=O)c1ccc2c(c1)CCCC2)c1nc2c(C)cccc2s1 | inconclusive: 7.08 µM [inhibitor, partial curve, poor fit] |

| Structure (SMILES) | Potency |
| --- | --- |
| O=C(Nc1nccs1)C1CC(=O)N(c2ccccc2Cl)C1 (stereo not drawn) | inactive |
| Cc1ccc(-c2cc(C(=O)NC3CCCCC3)no2)cc1 | inactive |
| CCC(C(=O)NCc1ccccc1Cl)n1c(=O)c2cccn2c2ccccc21 (stereo not drawn) | inactive |
| O=C(O)c1ccccc1SC1CC(=O)N(c2ccc3c(c2)OCO3)C1=O (stereo not drawn) | inactive |
| Cc1ccc(NN=C2C(=O)OC(C)(C)OC2=O)c(C)c1 | inconclusive: 2.82 µM [activator, partial curve] |
| O=C(C#Cc1ccccc1)Nc1ccc(F)cc1 | inconclusive: 35.5 µM [inhibitor, single point] |
| COc1ccc(-c2sc(C(=O)c3ccc(Cl)cc3Cl)cc2CC(=O)O)cc1 | inconclusive: 2.82 µM [inhibitor, full curve, poor fit] |
| COc1ccccc1OCc1ccc(C(=O)NCc2ccco2)o1 | inconclusive: 32.6 µM [inhibitor, partial curve, poor fit] |
| CCOC(=O)c1sc(NC(NC(=O)c2ccco2)(C(=O)OC)C(F)(F)F)nc1C (stereo not drawn) | inconclusive: 35.5 µM [inhibitor, single point] |
| Cc1ccc(NC(=O)CSc2nccn2Cc2ccco2)c(C)c1 | inconclusive: 10 µM [inhibitor, partial curve, poor fit] |
| Clc1cccc(Cl)c1C1Nc2cccc3cccc(c23)N1 | inconclusive: 35.5 µM [inhibitor, single point] |
| O=C(C1CC1)N1CCN=C1SCc1ccc(Cl)cc1 | inconclusive: 6.31 µM [inhibitor, single point] |
| COc1cc(OC)cc(C(=O)Nc2cccc(C(C)=O)c2)c1 | inactive |
| Cn1c(=O)c2c(-c3ccccc3)n(-c3cccc(C#N)c3)cc2n(C)c1=O | inactive |
| CCS(=O)(=O)c1nc(S(=O)(=O)c2ccc(Cl)cc2)c(NCc2ccc(Cl)cc2)s1 | inactive |
| CCN(CC)C(=O)c1ccc(NC(=O)c2ccc(-n3cncn3)c([N+](=O)[O-])c2)cc1 | inconclusive: 6.31 µM [activator, single point] |
| CC1(C(=O)NC2CCCCCCC2)CCC(=O)N1Cc1ccco1 (stereo not drawn) | inactive |
| COc1cc(S(=O)(=O)NC(C)C)ccc1Cl | inconclusive: 0.0052 µM [inhibitor, full curve, poor fit] |
| Cc1ccc(C2=[N+]([O-])C(C)N(O)C2(C)C)o1 (stereo not drawn) | inconclusive: 3.55 µM [activator, partial curve, poor fit] |
| COc1ccc(CCNC(=O)c2ccc3[nH]c(C)c(C)c3c2)cc1OC | inconclusive: 15.8 µM [inhibitor, single point] |
| CCN(CC)CCNC(=O)C1CCN(S(=O)(=O)N2CCCCC2)CC1 | inconclusive: 2.31 µM [inhibitor, partial curve, poor fit] |

Look-ups from the results shown:
Entry for `CCN(CC)CCN(C(=O)c1ccc2c(c1)CCCC2)c1nc2c(C)cccc2s1` under Potency: inconclusive: 7.08 µM [inhibitor, partial curve, poor fit]
Entry for `CCOc1ccc2oc(C(=O)N(C)CC(=O)Nc3ccc(OCC)c(OCC)c3)c(C)c2c1` under Potency: inactive
